# Laboratory results reported in the supplement of paper PMC8728848.
# The other results are listed elsewhere or left out.
# B1: Langerin K299A/K313A (Homo sapiens), Q9UJ71 (protein)
# chain: STLNAQIPELKSDLEKASALNTKIRALQGSLENMSKLLKRQNDILQVVSQGWKYFKGNFYYFSLIPKTWYSAEQFCVSRNSHLTSVTSESEQEFLYKTAGGLIYWIGLTKAGMEGDWSWVDDTPFNKVQSARFWIPGEPNNAGNNEHCGNIAAPSLQAWNDAPCDATFLFICKRPYVPSEP
# Key:
# Assay in all cases: glycan array binding signal (z-score within array); higher = stronger binding
# Conditions in all cases: glycan notation: IUPAC condensed, linker removed
# Gal(a1-3)Gal(b1-3)GlcNAc = biological target: Gal(a1-3)Gal(b1-3)GlcNAc
# Method in brief: (§1)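 Arrays were curated from the Consortium for Functional Glycomics database, 3228 in total, and kept only where the protein sequence was available. Binding is expressed as a within-array Z-score. This score was averaged across arrays of the same protein sequence at different concentrations or buffers and across linkers, and negative values can be read as non-binding.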
# [1] = biological target: Gal(a1-3)Gal(b1-3)GlcNAc(b1-2)Man
# Method in brief: as §1
# [2] = biological target: Gal(a1-3)Gal(b1-3)GlcNAc(b1-2)Man(a1-3)[Gal(a1-3)Gal(b1-3)GlcNAc(b1-2)Man(a1-6)]Man(b1-4)GlcNAc(b1-4)GlcNAc
# Method in brief: as §1
# [3] = biological target: Gal(a1-3)Gal(b1-3)GlcNAc(b1-3)GalNAc
# Method in brief: as §1
# [4] = biological target: Gal(a1-3)Gal(b1-3)GlcNAc(b1-6)GalNAc
# Method in brief: as §1
# [5] = biological target: Gal(a1-3)Gal(b1-3)[Fuc(a1-4)]GlcNAc(b1-2)Man(a1-3)[Gal(a1-3)Gal(b1-3)[Fuc(a1-4)]GlcNAc(b1-2)Man(a1-6)]Man(b1-4)GlcNAc(b1-4)GlcNAc
# Method in brief: as §1
# Gal(a1-3)Gal(b1-4)Glc = biological target: Gal(a1-3)Gal(b1-4)Glc
# Method in brief: as §1
# Gal(a1-3)Gal(b1-4)GlcNAc = biological target: Gal(a1-3)Gal(b1-4)GlcNAc
# Method in brief: as §1
# [6] = biological target: Gal(a1-3)Gal(b1-4)GlcNAc(b1-2)Man
# Method in brief: as §1
# [7] = biological target: Gal(a1-3)Gal(b1-4)GlcNAc(b1-2)Man(a1-3)[Gal(a1-3)Gal(b1-4)GlcNAc(b1-2)Man(a1-6)]Man(b1-4)GlcNAc(b1-4)GlcNAc
# Method in brief: as §1
# [8] = biological target: Gal(a1-3)Gal(b1-4)GlcNAc(b1-3)GalNAc
# Method in brief: as §1
# [9] = biological target: Gal(a1-3)Gal(b1-4)GlcNAc(b1-6)GalNAc
# Method in brief: as §1
# [10] = biological target: Gal(a1-3)Gal(b1-4)[Fuc(a1-3)]GlcNAc
# Method in brief: as §1
# [11] = biological target: Gal(a1-3)Gal(b1-4)[Fuc(a1-3)]GlcNAc(b1-2)Man(a1-3)[Gal(a1-3)Gal(b1-4)[Fuc(a1-3)]GlcNAc(b1-2)Man(a1-6)]Man(b1-4)GlcNAc(b1-4)GlcNAc
# Method in brief: as §1
# Gal(a1-3)GalNAc = biological target: Gal(a1-3)GalNAc
# Method in brief: as §1
# [12] = biological target: Gal(a1-3)[Gal(a1-4)]Gal(b1-4)GlcNAc
# Method in brief: as §1
# [13] = biological target: Gal(a1-4)Gal(b1-3)GlcNAc(b1-2)Man(a1-3)[Gal(a1-4)Gal(b1-3)GlcNAc(b1-2)Man(a1-6)]Man(b1-4)GlcNAc(b1-4)GlcNAc
# Method in brief: as §1
# Gal(a1-4)Gal(b1-4)Glc = biological target: Gal(a1-4)Gal(b1-4)Glc
# Method in brief: as §1
# Gal(a1-4)Gal(b1-4)GlcNAc = biological target: Gal(a1-4)Gal(b1-4)GlcNAc
# Method in brief: as §1
# [14] = biological target: Gal(a1-4)Gal(b1-4)GlcNAc(b1-2)Man(a1-3)[Gal(a1-4)Gal(b1-4)GlcNAc(b1-2)Man(a1-6)]Man(b1-4)GlcNAc(b1-4)GlcNAc
# Method in brief: as §1
# [15] = biological target: Gal(a1-4)Gal(b1-4)GlcNAc(b1-3)Gal(b1-4)Glc
# Method in brief: as §1
# Gal(a1-4)GlcNAc = biological target: Gal(a1-4)GlcNAc
# Method in brief: as §1
# Gal(a1-6)Glc = biological target: Gal(a1-6)Glc
# Method in brief: as §1
# Gal(b1-2)Gal = biological target: Gal(b1-2)Gal
# Method in brief: as §1
# Gal(b1-3)Gal = biological target: Gal(b1-3)Gal
# Method in brief: as §1
# Gal(b1-3)Gal(b1-4)GlcNAc = biological target: Gal(b1-3)Gal(b1-4)GlcNAc
# Method in brief: as §1
# Gal(b1-3)GalNAc = biological target: Gal(b1-3)GalNAc
# Method in brief: as §1
# [16] = biological target: Gal(b1-3)GalNAc(a1-3)[Fuc(a1-2)]Gal(b1-4)Glc
# Method in brief: as §1
# [17] = biological target: Gal(b1-3)GalNAc(a1-3)[Fuc(a1-2)]Gal(b1-4)GlcNAc
# Method in brief: as §1
# Gal(b1-3)GalNAc(b1-3)Gal = biological target: Gal(b1-3)GalNAc(b1-3)Gal
# Method in brief: as §1
# [18] = biological target: Gal(b1-3)GalNAc(b1-3)Gal(a1-4)Gal(b1-4)Glc
# Method in brief: as §1
# [19] = biological target: Gal(b1-3)GalNAc(b1-4)Gal(b1-4)Glc
# Method in brief: as §1
# [20] = biological target: Gal(b1-3)GalNAc(b1-4)[Neu5Ac(a2-3)]Gal(b1-4)Glc
# Method in brief: as §1
# Gal(b1-3)GlcNAc = biological target: Gal(b1-3)GlcNAc
# Method in brief: as §1
# [21] = biological target: Gal(b1-3)GlcNAc(a1-3)Gal(b1-4)GlcNAc
# Method in brief: as §1
# [22] = biological target: Gal(b1-3)GlcNAc(a1-6)Gal(b1-4)GlcNAc
# Method in brief: as §1
# Gal(b1-3)GlcNAc(b1-2)Man = biological target: Gal(b1-3)GlcNAc(b1-2)Man
# Method in brief: as §1
# [23] = biological target: Gal(b1-3)GlcNAc(b1-2)Man(a1-3)[Gal(b1-3)GlcNAc(b1-2)Man(a1-6)]Man(b1-4)GlcNAc(b1-4)GlcNAc
# Method in brief: as §1
binder,measurement,setting,value
B1,glycan array binding signal (z-score),Gal(a1-3)Gal(b1-3)GlcNAc,-0.746
same,glycan array binding signal (z-score),[1],0.178
same,glycan array binding signal (z-score),[2],1.22
same,glycan array binding signal (z-score),[3],0.251
same,glycan array binding signal (z-score),[4],0.359
same,glycan array binding signal (z-score),[5],2.12
same,glycan array binding signal (z-score),Gal(a1-3)Gal(b1-4)Glc,-0.264
same,glycan array binding signal (z-score),Gal(a1-3)Gal(b1-4)GlcNAc,0.282
same,glycan array binding signal (z-score),[6],-0.928
same,glycan array binding signal (z-score),[7],1.31
same,glycan array binding signal (z-score),[8],-1.18
same,glycan array binding signal (z-score),[9],-0.491
same,glycan array binding signal (z-score),[10],-0.587
same,glycan array binding signal (z-score),[11],0.892
same,glycan array binding signal (z-score),Gal(a1-3)GalNAc,-0.531
same,glycan array binding signal (z-score),[12],0.088
same,glycan array binding signal (z-score),[13],0.339
same,glycan array binding signal (z-score),Gal(a1-4)Gal(b1-4)Glc,2.29
same,glycan array binding signal (z-score),Gal(a1-4)Gal(b1-4)GlcNAc,-0.009
same,glycan array binding signal (z-score),[14],0.783
same,glycan array binding signal (z-score),[15],1.5
same,glycan array binding signal (z-score),Gal(a1-4)GlcNAc,-1.03
same,glycan array binding signal (z-score),Gal(a1-6)Glc,-0.08
same,glycan array binding signal (z-score),Gal(b1-2)Gal,1.77
same,glycan array binding signal (z-score),Gal(b1-3)Gal,-0.059
same,glycan array binding signal (z-score),Gal(b1-3)Gal(b1-4)GlcNAc,-1.01
same,glycan array binding signal (z-score),Gal(b1-3)GalNAc,-0.212
same,glycan array binding signal (z-score),[16],-1.18
same,glycan array binding signal (z-score),[17],-0.852
same,glycan array binding signal (z-score),Gal(b1-3)GalNAc(b1-3)Gal,0.002
same,glycan array binding signal (z-score),[18],-0.916
same,glycan array binding signal (z-score),[19],-0.214
same,glycan array binding signal (z-score),[20],-0.669
same,glycan array binding signal (z-score),Gal(b1-3)GlcNAc,-0.266
same,glycan array binding signal (z-score),[21],-0.826
same,glycan array binding signal (z-score),[22],0.434
same,glycan array binding signal (z-score),Gal(b1-3)GlcNAc(b1-2)Man,0.874
same,glycan array binding signal (z-score),[23],2.15

# Some of the entries above in another layout:
binder	measurement	setting	value
B1	glycan array binding signal (z-score)	Gal(a1-6)Glc	-0.08
same	glycan array binding signal (z-score)	Gal(b1-3)GalNAc	-0.212
